Measured values reported in the supplement of paper PMC10849652.
Some of the results follow.

Amino acid sequences for entries named in this document (tags omitted). A change or cut given only in a name is not applied to a line headed by its entry.
UniProt Q8TDH9: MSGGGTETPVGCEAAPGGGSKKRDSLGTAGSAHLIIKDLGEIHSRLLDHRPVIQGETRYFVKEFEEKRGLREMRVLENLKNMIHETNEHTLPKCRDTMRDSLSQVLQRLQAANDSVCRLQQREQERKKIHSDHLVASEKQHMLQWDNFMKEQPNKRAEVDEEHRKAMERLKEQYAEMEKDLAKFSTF
UniProt Q7Z569: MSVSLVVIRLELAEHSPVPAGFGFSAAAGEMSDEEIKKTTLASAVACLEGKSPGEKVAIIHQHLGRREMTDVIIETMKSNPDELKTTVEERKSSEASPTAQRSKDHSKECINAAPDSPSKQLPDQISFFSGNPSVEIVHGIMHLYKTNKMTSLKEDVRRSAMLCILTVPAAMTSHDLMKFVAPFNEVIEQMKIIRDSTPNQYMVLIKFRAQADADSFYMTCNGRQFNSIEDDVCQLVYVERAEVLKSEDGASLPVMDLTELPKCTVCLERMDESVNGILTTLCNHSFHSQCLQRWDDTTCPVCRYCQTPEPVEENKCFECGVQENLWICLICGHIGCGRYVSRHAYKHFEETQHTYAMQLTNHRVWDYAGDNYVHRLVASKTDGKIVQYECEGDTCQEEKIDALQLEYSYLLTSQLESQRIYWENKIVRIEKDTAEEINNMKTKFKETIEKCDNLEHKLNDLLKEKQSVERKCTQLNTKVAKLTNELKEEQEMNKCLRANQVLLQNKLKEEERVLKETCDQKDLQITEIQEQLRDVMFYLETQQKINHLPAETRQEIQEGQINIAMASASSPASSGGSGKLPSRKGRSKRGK
UniProt Q9BQE9, whole entry, looked up: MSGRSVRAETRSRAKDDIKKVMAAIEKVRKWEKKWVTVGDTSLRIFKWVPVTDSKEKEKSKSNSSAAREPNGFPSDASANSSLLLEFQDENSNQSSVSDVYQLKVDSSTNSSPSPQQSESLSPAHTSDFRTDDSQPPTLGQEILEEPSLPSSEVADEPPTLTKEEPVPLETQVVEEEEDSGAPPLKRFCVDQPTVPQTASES
UniProt Q8NFC6: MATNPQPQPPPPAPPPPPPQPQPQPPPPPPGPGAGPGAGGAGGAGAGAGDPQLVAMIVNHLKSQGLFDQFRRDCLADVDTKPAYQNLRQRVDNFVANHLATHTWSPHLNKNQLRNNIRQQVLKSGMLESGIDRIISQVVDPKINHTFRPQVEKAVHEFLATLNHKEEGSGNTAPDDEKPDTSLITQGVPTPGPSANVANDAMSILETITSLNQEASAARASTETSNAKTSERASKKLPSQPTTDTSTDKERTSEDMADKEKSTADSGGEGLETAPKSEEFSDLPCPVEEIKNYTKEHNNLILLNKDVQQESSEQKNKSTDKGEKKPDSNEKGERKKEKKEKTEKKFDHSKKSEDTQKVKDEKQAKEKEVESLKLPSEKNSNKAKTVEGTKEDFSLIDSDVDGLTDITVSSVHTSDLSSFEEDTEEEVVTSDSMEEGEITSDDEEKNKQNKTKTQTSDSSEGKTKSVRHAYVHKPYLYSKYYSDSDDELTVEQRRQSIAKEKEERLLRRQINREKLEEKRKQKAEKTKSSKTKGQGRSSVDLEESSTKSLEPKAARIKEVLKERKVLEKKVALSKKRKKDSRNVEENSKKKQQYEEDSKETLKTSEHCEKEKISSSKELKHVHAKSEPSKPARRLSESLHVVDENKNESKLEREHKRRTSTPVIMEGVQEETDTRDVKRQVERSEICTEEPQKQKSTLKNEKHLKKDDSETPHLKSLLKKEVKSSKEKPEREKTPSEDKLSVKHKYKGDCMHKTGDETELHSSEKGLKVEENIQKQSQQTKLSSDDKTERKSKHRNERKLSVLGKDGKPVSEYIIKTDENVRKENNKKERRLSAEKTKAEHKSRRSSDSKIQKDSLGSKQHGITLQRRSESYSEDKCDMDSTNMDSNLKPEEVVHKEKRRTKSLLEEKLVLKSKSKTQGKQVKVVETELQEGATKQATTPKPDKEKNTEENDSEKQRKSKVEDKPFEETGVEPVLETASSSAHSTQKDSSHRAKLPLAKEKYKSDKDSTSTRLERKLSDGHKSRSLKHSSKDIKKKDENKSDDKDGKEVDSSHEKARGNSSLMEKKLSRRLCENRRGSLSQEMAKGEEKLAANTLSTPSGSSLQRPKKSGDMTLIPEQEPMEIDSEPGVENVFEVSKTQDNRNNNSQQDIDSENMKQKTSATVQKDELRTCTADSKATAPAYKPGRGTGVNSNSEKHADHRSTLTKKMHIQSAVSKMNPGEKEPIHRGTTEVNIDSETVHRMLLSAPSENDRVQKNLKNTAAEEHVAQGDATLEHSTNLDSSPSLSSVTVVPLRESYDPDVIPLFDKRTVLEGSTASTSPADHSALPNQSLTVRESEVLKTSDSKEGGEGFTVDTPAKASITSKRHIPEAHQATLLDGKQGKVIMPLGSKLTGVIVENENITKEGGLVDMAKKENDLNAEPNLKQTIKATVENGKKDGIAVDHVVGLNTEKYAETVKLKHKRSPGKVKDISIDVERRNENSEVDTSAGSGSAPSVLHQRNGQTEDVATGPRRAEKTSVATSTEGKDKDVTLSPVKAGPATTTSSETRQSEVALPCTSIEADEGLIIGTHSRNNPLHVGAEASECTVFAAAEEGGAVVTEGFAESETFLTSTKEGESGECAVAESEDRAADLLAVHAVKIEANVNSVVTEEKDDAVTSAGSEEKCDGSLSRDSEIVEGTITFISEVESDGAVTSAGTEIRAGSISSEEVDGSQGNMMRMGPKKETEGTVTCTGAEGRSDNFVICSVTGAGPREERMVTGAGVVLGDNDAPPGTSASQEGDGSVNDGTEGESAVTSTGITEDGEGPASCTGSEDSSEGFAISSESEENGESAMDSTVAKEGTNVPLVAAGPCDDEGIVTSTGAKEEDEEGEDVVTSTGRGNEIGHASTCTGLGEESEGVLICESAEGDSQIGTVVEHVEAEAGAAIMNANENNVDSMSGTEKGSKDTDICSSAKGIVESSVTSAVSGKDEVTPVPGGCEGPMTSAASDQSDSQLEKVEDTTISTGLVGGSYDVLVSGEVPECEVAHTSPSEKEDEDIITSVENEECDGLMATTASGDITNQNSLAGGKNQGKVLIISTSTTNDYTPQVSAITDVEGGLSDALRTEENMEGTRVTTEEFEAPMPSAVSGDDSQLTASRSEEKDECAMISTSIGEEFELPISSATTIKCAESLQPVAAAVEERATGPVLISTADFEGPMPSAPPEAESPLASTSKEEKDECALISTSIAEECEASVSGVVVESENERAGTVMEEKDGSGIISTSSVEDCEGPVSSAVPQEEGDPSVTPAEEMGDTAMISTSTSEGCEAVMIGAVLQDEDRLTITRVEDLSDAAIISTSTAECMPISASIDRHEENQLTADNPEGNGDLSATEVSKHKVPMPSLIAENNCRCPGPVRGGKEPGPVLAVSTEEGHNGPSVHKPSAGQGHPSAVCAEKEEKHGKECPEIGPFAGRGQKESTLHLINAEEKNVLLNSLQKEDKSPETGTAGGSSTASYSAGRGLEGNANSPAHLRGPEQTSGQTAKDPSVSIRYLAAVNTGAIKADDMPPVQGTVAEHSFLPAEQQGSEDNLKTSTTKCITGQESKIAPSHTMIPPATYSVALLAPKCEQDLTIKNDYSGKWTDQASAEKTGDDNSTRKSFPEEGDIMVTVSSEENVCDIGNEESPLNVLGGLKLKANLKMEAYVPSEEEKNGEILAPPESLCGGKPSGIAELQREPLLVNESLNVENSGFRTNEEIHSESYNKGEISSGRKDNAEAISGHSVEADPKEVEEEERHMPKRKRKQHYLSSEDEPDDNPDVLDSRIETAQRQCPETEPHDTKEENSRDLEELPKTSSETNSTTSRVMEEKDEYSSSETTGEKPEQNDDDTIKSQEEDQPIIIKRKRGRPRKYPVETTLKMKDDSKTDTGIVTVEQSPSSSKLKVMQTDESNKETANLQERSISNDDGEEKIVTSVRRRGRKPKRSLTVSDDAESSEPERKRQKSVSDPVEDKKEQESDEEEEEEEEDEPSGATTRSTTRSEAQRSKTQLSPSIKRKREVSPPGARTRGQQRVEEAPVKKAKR
UniProt O95999: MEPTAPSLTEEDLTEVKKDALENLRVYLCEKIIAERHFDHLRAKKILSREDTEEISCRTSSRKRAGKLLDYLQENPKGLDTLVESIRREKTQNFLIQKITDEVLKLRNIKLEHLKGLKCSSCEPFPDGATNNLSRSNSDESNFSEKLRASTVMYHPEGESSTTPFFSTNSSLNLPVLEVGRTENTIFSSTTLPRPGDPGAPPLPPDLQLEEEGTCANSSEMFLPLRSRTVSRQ
UniProt Q9BXK5, whole entry, looked up: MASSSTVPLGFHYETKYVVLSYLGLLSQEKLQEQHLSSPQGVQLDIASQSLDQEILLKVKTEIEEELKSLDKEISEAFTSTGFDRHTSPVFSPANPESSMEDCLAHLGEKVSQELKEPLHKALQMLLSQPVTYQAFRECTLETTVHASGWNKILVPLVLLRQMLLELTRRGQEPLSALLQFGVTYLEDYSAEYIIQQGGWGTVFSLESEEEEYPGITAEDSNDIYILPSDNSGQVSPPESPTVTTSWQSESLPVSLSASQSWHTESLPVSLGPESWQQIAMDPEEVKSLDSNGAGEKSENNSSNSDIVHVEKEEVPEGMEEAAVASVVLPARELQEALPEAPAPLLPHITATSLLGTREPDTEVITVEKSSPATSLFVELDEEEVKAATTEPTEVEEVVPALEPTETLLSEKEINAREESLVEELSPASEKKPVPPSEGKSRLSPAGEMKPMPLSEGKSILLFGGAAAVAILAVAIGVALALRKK
UniProt Q92560: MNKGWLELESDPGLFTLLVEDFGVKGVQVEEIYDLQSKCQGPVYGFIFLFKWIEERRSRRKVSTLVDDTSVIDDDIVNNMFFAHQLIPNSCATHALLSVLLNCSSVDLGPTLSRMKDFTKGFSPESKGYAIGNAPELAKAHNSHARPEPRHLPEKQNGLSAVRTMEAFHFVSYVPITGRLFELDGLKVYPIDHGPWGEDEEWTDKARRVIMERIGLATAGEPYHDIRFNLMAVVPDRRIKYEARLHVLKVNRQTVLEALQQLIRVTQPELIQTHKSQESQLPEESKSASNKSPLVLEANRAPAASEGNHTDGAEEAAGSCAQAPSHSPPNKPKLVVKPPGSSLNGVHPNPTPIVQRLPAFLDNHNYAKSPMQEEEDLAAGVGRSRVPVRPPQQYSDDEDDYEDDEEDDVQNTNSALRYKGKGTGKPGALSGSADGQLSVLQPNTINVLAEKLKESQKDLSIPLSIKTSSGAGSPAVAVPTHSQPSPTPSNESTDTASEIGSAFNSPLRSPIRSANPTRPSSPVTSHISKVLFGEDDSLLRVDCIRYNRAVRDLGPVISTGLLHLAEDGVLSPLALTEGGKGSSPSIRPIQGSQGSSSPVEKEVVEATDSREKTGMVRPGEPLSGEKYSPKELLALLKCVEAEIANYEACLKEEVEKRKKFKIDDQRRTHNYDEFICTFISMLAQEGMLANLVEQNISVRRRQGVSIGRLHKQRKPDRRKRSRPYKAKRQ
UniProt P07738: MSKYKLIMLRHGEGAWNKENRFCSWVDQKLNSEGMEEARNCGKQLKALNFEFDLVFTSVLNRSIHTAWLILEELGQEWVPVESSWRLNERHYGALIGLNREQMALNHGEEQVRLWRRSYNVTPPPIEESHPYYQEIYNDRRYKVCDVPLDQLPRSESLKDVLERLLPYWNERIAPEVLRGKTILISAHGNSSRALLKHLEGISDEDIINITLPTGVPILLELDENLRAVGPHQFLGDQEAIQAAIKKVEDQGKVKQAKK
UniProt Q14137: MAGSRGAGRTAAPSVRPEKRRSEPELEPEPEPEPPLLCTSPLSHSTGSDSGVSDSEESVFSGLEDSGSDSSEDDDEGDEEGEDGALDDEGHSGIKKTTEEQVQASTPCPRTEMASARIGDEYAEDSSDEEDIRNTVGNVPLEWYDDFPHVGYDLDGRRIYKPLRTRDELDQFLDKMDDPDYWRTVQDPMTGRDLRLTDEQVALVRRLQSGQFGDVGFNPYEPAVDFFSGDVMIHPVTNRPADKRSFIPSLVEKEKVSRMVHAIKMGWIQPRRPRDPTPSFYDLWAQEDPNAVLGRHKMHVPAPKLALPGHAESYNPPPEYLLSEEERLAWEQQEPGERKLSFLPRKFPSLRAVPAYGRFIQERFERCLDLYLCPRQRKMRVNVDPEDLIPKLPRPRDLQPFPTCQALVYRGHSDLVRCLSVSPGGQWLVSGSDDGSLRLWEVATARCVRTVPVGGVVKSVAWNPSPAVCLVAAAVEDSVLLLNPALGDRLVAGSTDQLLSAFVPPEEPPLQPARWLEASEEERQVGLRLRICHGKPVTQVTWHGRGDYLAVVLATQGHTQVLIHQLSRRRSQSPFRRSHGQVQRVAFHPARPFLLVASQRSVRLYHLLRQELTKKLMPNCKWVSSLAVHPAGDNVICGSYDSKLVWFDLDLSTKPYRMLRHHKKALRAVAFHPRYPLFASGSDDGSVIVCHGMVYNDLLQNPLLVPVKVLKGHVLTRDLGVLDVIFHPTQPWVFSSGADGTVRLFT
UniProt Q9NYM9: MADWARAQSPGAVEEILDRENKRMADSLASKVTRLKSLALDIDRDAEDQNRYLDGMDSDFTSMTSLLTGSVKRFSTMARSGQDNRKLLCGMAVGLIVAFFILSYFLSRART

How the values were obtained:
Experiment in all cases: log2 fold change, soluble protein after heating vs DMSO (PISA); higher = thermal stabilisation; K562 lysate, 10 uM; active = over 0.2 and 3.5 SD of the protein, either way, in both replicates (recomputed)
vemurafenib = compound: CCCS(=O)(=O)Nc1ccc(F)c(C(=O)c2c[nH]c3ncc(-c4ccc(Cl)cc4)cc23)c1F [vemurafenib]
Procedure, shortened: (§1)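 Pellets of K562 cells were dounce-homogenised in PBS pH 7.4 with 1 mM MgCl2, and the crude extract was held at 1 mg/mL protein for a 30 min treatment with 10 μM compound. Aliquots were heated for 3 min over 48°C-58°C and pooled before NP-40 was added to 0.5% at 4°C. The supernatant from 21,000xg for 90 min was quantified by TMTpro 16plex LC-MS/MS with channel sums equalised. Values are reported from duplicates as log-two fold change in thermal stability relative to solvent controls.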

[1] = compound: CCCS(=O)(=O)Nc1ccc(F)c(C(=O)c2c[nH]c3ncc(Cl)cc23)c1F
Procedure, shortened: as §1

barasertib = compound: CCN(CCCOc1ccc2c(Nc3cc(CC(=O)Nc4cccc(F)c4)[nH]n3)ncnc2c1)CCOP(=O)(O)O [barasertib]
Procedure, shortened: as §1

[2] = compound: CC[C@@H]1C(=O)N(C)c2cnc(Nc3ccc(C(=O)NC4CCN(C)CC4)cc3OC)nc2N1C1CCCC1
Procedure, shortened: as §1

volasertib = compound: CC[C@@H]1C(=O)N(C)c2cnc(Nc3ccc(C(=O)N[C@H]4CC[C@H](N5CCN(CC6CC6)CC5)CC4)cc3OC)nc2N1C(C)C [volasertib]
Procedure, shortened: as §1

[3] = compound: CCn1c(C(=O)N(C2CC2)C2CC2)cc2c3c(ncn3C)c(Nc3cc(C)n(C)n3)nc21
Procedure, shortened: as §1

[4] = compound: CCn1cc(-c2ccnc3[nH]c(-c4cccc(CN(C)C)c4)cc23)c(-c2ccc(NC(=O)N(C)C)cc2)n1
Procedure, shortened: as §1

[5] = compound: CN1CCC(CNc2ccc3ncc(-c4cccc(OC(F)(F)F)c4)n3n2)CC1
Procedure, shortened: as §1

saracatinib = compound: CN1CCN(CCOc2cc(OC3CCOCC3)c3c(Nc4c(Cl)ccc5c4OCO5)ncnc3c2)CC1 [saracatinib]
Procedure, shortened: as §1

sotrastaurin = compound: CN1CCN(c2nc(C3=C(c4c[nH]c5ccccc45)C(=O)NC3=O)c3ccccc3n2)CC1 [sotrastaurin]
Procedure, shortened: as §1

alvocidib = compound: CN1CC[C@H](c2c(O)cc(O)c3c(=O)cc(-c4ccccc4Cl)oc23)[C@H](O)C1 [alvocidib]
Procedure, shortened: as §1

Tubastatin A = compound: CN1CCc2c(c3ccccc3n2Cc2ccc(C(=O)NO)cc2)C1 [Tubastatin A]
Procedure, shortened: as §1

[6] = compound: CNC(=O)C1=CC=CC=C1NC2=NC(=NC=C2Cl)NC3=C(C=C(C=C3)N4CCOCC4)OC
Procedure, shortened: as §1

defactinib = compound: CNC(=O)c1ccc(Nc2ncc(C(F)(F)F)c(NCc3nccnc3N(C)S(C)(=O)=O)n2)cc1 [defactinib]
Procedure, shortened: as §1

[7] = compound: CNc1nc(-c2ccc3c(N)n[nH]c3c2)cc(N2C[C@@H](C(=O)NC3CCCCC3)CC[C@H]2C)n1
Procedure, shortened: as §1

encorafenib = compound: COC(=O)N[C@@H](C)CNc1nccc(-c2cn(C(C)C)nc2-c2cc(Cl)cc(NS(C)(=O)=O)c2F)n1 [encorafenib]
Procedure, shortened: as §1

[8] = compound: COC(=O)[C@H](CCSC)NC(=O)C1=C(C=C(C=C1)NC[C@H](CS)N)C2=CC=CC=C2
Procedure, shortened: as §1

alisertib = compound: COc1cc(Nc2ncc3c(n2)-c2ccc(Cl)cc2C(c2c(F)cccc2OC)=NC3)ccc1C(=O)O [alisertib]
Procedure, shortened: as §1

[9] = compound: COc1cc2nc(-c3cc(F)ccc3O)nc(N[C@@H]3CNC[C@H]3C(C)(C)O)c2cc1OC
Procedure, shortened: as §1

gefitinib = compound: COc1cc2ncnc(Nc3ccc(F)c(Cl)c3)c2cc1OCCCN1CCOCC1 [gefitinib]
Procedure, shortened: as §1

Measured: log2 fold change

BLOC1S5 (UniProt Q8TDH9)
inactive: vemurafenib -0.037 | [1] 0.023 | barasertib 0.035 | [2] 0.035 | volasertib 0.03 | [3] -0.021 | [4] 0.018 | [5] 0.046 | saracatinib 0.008 | sotrastaurin -0.02 | alvocidib -0.03 | Tubastatin A 0.037 | [6] 0.047 | defactinib 0.015 | [7] 0.048 | encorafenib -0.011 | [8] -0.031 | alisertib 0.038 | [9] -0.01 | gefitinib -0.061

BRAP (UniProt Q7Z569)
inactive: vemurafenib 0.024 | [1] 0.012 | barasertib 0.073 | [2] 0.044 | volasertib -0.001 | [3] -0.025 | [4] -0.042 | [5] 0.03 | saracatinib 0.006 | sotrastaurin 0.027 | alvocidib -0.024 | Tubastatin A -0.012 | [6] 0.012 | defactinib -0.022 | [7] 0.029 | encorafenib 0.014 | [8] -0.025 | alisertib -0.019 | [9] 0.004 | gefitinib -0.02

BTF3 (UniProt P20290)
inactive: vemurafenib -0.02 | [1] -0.008 | barasertib -0.032 | [2] 0.018 | volasertib 0.026 | [3] 0 | [4] -0.026 | [5] -0.162 | saracatinib 0.023 | sotrastaurin 0.014 | alvocidib 0.04 | Tubastatin A 0.036 | [6] 0.006 | defactinib 0.004 | [7] -0.038 | encorafenib 0.004 | [8] -0.016 | alisertib 0.025 | [9] 0.013 | gefitinib 0.003

BCKDK (UniProt O14874)
inactive: vemurafenib -0.036 | [1] 0.002 | barasertib -0.028 | [2] 0.203 | volasertib -0.037 | [3] 0.067 | [4] -0.033 | [5] 0.059 | saracatinib 0.031 | sotrastaurin 0.028 | alvocidib 0.029 | Tubastatin A -0.117 | [6] -0.005 | defactinib 0.029 | [7] -0.098 | encorafenib -0.061 | [8] 0.066 | alisertib 0.023 | [9] -0.027 | gefitinib 0.053

BCL7B (UniProt Q9BQE9)
inactive: vemurafenib 0.107 | [1] -0.001 | barasertib -0.347 | [2] -0.012 | volasertib 0.124 | [3] 0.066 | [4] 0.334 | [5] -0.271 | saracatinib 0.039 | sotrastaurin 0.058 | alvocidib 0.145 | Tubastatin A -0.034 | [6] -0.077 | defactinib 0 | [7] -0.013 | encorafenib 0.066 | [8] -0.038 | alisertib 0.006 | [9] -0.003 | gefitinib 0.049

BOD1L1 (UniProt Q8NFC6)
inactive: vemurafenib -0.02 | [1] 0.015 | barasertib 0.035 | [2] 0.068 | volasertib 0.02 | [3] -0.026 | [4] -0.046 | [5] 0.04 | saracatinib 0.012 | sotrastaurin 0.003 | alvocidib -0.028 | Tubastatin A 0.04 | [6] 0.024 | defactinib 0.013 | [7] 0.008 | encorafenib 0.011 | [8] 0.008 | alisertib -0.009 | [9] 0.02 | gefitinib -0.007

BCL10 (UniProt O95999)
inactive: vemurafenib -0.009 | [1] -0.007 | barasertib 0.015 | [2] 0.031 | volasertib 0.029 | [3] 0.026 | [4] 0.035 | [5] 0.02 | saracatinib 0.03 | sotrastaurin 0.013 | alvocidib -0.061 | Tubastatin A 0.036 | [6] 0.024 | defactinib -0.041 | [7] -0.009 | encorafenib 0.037 | [8] -0.057 | alisertib 0.002 | [9] -0.049 | gefitinib -0.011

BCL2L13 (UniProt Q9BXK5)
inactive: vemurafenib 0.003 | [1] -0.033 | barasertib -0.028 | [2] 0.024 | volasertib 0.008 | [3] -0.026 | [4] 0.041 | [5] 0.002 | saracatinib -0.053 | sotrastaurin 0.025 | alvocidib -0.044 | Tubastatin A 0.029 | [6] 0.006 | defactinib 0.02 | [7] -0.007 | encorafenib -0.023 | [8] 0.032 | alisertib -0.023 | [9] -0.007 | gefitinib 0.019

BAP1 (UniProt Q92560)
inactive: vemurafenib 0.021 | [1] -0.005 | barasertib -0.046 | [2] 0.087 | volasertib 0.006 | [3] -0.065 | [4] 0.002 | [5] -0.035 | saracatinib 0.022 | sotrastaurin -0.007 | alvocidib 0.008 | Tubastatin A -0.041 | [6] 0.006 | defactinib -0.011 | [7] -0.072 | encorafenib -0.007 | [8] 0.061 | alisertib -0.034 | [9] -0.006 | gefitinib 0.082

BPGM (UniProt P07738)
inactive: vemurafenib -0.001 | [1] -0.032 | barasertib -0.039 | [2] -0.158 | volasertib -0.04 | [3] 0.08 | [4] -0.019 | [5] -0.023 | saracatinib 0.002 | sotrastaurin 0.079 | alvocidib 0.034 | Tubastatin A 0.09 | [6] -0.023 | defactinib -0.023 | [7] 0.014 | encorafenib -0.162 | [8] 0.097 | alisertib -0.058 | [9] -0.022 | gefitinib 0.012

BIRC6 (UniProt Q9NR09)
inactive: vemurafenib -0.018 | [1] 0.019 | barasertib 0.013 | [2] -0.018 | volasertib -0.015 | [3] 0.021 | [4] -0.046 | [5] 0.002 | saracatinib -0.005 | sotrastaurin -0.007 | alvocidib 0.002 | Tubastatin A -0.046 | [6] 0.013 | defactinib 0.011 | [7] 0.013 | encorafenib 0.01 | [8] -0.03 | alisertib 0.009 | [9] -0.005 | gefitinib -0.025

Looked up one by one from above (2):
BIRC6 (UniProt Q9NR09)
inactive: vemurafenib -0.018 | [1] 0.019 | barasertib 0.013 | [2] -0.018 | volasertib -0.015 | [3] 0.021 | [4] -0.046 | [5] 0.002 | saracatinib -0.005 | sotrastaurin -0.007 | alvocidib 0.002 | Tubastatin A -0.046 | [6] 0.013 | defactinib 0.011 | [7] 0.013 | encorafenib 0.01 | [8] -0.03 | alisertib 0.009 | [9] -0.005 | gefitinib -0.025

BCL7B (UniProt Q9BQE9)
inactive: vemurafenib 0.107 | [1] -0.001 | barasertib -0.347 | [2] -0.012 | volasertib 0.124 | [3] 0.066 | [4] 0.334 | [5] -0.271 | saracatinib 0.039 | sotrastaurin 0.058 | alvocidib 0.145 | Tubastatin A -0.034 | [6] -0.077 | defactinib 0 | [7] -0.013 | encorafenib 0.066 | [8] -0.038 | alisertib 0.006 | [9] -0.003 | gefitinib 0.049

Further entries:

BAIAP2L1 (UniProt Q9UHR4)
inactive: vemurafenib 0.002 | [1] -0.001 | barasertib -0.004 | [2] 0.017 | volasertib 0.015 | [3] 0.005 | [4] 0.051 | [5] -0.021 | saracatinib -0.015 | sotrastaurin -0.004 | alvocidib 0.008 | Tubastatin A 0.029 | [6] 0.014 | defactinib 0.025 | [7] 0.025 | encorafenib 0.026 | [8] 0.005 | alisertib 0.01 | [9] -0.009 | gefitinib -0.003

BOP1 (UniProt Q14137)
inactive: vemurafenib 0.013 | [1] 0.009 | barasertib -0.027 | [2] -0.001 | volasertib -0.027 | [3] 0.02 | [4] 0.004 | [5] 0.02 | saracatinib 0.029 | sotrastaurin 0.026 | alvocidib -0.007 | Tubastatin A -0.077 | [6] -0.007 | defactinib 0 | [7] -0.037 | encorafenib 0.021 | [8] 0.121 | alisertib -0.038 | [9] 0.015 | gefitinib 0.018

BET1L (UniProt Q9NYM9)
inactive: vemurafenib 0.054 | [1] 0.04 | barasertib -0.005 | [2] 0.027 | volasertib -0.111 | [3] 0.027 | [4] 0.098 | [5] -0.122 | saracatinib 0.056 | sotrastaurin -0.08 | alvocidib 0.033 | Tubastatin A 0.072 | [6] 0.171 | defactinib 0.163 | [7] -0.013 | encorafenib 0.079 | [8] -0.011 | alisertib -0.004 | [9] 0.012 | gefitinib -0.26

BAX isoform 2 (UniProt Q07812)
inactive: vemurafenib -0.003 | [1] -0.005 | barasertib 0.118 | [2] -0.008 | volasertib 0.021 | [3] -0.011 | [4] 0.036 | [5] -0.05 | saracatinib -0.002 | sotrastaurin 0.007 | alvocidib -0.035 | Tubastatin A 0.038 | [6] 0.108 | defactinib 0.05 | [7] 0.055 | encorafenib 0.045 | [8] 0.011 | alisertib -0.011 | [9] -0.029 | gefitinib 0.032

BRCA1 isoform 7 (UniProt P38398)
inactive: vemurafenib 0.003 | [1] -0.07 | barasertib 0.014 | [2] 0.016 | volasertib 0.031 | [3] 0.031 | [4] 0.05 | [5] -0.107 | saracatinib 0.01 | sotrastaurin -0.019 | alvocidib 0.04 | Tubastatin A -0.061 | [6] 0 | defactinib -0.007 | [7] 0.025 | encorafenib 0.073 | [8] 0.095 | alisertib -0.123 | [9] 0.055 | gefitinib 0.05
